This is one part of the list.

Sequences of proteins named here, by UniProt entry; tags and fusion partners are left off. A change or cut given only in a name is not applied to a line headed by its entry.
UniProt Q9Y3B2, whole entry, looked up: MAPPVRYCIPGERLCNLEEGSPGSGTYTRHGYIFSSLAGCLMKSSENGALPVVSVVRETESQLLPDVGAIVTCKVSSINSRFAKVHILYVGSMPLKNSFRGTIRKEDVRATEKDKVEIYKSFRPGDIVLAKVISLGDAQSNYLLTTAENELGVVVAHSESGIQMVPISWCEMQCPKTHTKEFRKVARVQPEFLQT
UniProt Q86YB8: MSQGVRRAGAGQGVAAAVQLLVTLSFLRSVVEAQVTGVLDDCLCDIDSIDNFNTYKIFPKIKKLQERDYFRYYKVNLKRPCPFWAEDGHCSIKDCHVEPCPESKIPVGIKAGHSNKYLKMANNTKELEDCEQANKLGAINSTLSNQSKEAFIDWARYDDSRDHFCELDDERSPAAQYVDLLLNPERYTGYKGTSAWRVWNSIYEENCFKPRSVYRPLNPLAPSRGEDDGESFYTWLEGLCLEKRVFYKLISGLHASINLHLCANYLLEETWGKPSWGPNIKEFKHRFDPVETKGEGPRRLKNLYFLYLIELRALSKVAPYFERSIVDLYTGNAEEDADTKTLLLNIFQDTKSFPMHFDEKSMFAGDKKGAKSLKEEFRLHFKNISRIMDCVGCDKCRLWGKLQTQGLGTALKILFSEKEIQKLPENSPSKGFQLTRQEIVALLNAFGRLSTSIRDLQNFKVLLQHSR
UniProt P84090, whole entry, looked up: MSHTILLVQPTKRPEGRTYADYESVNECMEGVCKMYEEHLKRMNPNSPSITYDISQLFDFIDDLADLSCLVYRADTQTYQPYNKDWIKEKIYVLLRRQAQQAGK
UniProt P05413, whole entry, looked up: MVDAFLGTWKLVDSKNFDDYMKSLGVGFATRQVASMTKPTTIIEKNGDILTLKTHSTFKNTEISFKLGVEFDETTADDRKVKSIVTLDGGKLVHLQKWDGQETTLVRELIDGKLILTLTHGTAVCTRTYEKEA
UniProt Q9NZ08: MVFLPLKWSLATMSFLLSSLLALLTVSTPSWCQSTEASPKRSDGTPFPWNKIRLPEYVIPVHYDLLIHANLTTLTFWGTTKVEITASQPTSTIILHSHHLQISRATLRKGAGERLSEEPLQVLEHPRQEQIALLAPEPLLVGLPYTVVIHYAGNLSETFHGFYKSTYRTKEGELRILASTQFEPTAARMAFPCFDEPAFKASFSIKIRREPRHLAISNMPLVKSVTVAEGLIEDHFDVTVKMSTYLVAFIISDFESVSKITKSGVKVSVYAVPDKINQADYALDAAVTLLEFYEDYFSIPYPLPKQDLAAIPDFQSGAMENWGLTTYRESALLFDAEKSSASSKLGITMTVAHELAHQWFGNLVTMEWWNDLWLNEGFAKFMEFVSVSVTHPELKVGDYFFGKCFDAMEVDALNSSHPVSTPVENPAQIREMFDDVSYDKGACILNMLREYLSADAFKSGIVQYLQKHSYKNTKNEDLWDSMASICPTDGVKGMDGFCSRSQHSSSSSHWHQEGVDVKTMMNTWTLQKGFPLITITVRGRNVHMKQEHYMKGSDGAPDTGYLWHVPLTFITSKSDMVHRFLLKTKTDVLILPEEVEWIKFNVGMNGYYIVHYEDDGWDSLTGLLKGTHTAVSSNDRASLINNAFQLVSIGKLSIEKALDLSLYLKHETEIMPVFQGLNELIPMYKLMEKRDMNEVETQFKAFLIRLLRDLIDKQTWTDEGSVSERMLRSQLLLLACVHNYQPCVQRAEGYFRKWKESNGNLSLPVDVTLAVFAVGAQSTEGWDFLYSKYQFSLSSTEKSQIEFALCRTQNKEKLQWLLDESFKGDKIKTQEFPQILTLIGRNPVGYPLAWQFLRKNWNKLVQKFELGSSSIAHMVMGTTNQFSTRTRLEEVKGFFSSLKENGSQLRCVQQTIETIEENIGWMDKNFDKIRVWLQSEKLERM
UniProt Q96RT1: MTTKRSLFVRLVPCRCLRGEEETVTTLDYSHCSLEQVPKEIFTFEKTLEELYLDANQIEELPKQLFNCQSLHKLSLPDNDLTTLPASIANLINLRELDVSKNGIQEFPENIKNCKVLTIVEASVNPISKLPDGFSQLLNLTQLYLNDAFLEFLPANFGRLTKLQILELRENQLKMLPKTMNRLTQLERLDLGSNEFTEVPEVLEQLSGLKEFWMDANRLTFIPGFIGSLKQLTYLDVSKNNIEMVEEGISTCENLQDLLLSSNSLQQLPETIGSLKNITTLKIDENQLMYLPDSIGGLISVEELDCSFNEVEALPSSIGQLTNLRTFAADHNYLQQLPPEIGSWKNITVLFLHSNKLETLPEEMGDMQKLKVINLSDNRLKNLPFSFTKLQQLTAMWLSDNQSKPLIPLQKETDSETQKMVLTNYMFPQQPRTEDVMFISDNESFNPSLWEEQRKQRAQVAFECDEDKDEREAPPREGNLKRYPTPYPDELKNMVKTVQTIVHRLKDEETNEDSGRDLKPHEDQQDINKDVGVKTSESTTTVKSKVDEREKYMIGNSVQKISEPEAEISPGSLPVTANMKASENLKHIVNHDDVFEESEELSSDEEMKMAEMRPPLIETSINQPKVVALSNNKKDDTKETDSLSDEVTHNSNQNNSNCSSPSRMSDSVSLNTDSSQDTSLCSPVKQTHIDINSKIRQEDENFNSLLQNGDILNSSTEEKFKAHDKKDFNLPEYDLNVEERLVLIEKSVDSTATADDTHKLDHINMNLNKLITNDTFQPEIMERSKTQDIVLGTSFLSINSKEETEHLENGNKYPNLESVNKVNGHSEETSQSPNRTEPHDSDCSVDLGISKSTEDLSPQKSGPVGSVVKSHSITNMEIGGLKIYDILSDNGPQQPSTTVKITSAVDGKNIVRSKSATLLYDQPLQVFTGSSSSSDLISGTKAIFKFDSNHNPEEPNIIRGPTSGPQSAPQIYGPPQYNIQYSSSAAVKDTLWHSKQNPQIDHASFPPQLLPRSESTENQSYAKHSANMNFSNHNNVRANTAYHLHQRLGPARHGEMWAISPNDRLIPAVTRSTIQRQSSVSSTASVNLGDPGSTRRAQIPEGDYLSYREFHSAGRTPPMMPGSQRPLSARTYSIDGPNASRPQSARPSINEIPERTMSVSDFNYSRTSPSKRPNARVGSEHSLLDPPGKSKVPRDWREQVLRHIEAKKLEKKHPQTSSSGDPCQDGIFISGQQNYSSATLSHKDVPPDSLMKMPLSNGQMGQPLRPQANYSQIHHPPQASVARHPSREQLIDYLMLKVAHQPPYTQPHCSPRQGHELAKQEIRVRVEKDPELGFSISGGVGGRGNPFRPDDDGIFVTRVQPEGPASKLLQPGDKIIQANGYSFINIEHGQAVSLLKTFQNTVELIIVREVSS
UniProt Q9UF33: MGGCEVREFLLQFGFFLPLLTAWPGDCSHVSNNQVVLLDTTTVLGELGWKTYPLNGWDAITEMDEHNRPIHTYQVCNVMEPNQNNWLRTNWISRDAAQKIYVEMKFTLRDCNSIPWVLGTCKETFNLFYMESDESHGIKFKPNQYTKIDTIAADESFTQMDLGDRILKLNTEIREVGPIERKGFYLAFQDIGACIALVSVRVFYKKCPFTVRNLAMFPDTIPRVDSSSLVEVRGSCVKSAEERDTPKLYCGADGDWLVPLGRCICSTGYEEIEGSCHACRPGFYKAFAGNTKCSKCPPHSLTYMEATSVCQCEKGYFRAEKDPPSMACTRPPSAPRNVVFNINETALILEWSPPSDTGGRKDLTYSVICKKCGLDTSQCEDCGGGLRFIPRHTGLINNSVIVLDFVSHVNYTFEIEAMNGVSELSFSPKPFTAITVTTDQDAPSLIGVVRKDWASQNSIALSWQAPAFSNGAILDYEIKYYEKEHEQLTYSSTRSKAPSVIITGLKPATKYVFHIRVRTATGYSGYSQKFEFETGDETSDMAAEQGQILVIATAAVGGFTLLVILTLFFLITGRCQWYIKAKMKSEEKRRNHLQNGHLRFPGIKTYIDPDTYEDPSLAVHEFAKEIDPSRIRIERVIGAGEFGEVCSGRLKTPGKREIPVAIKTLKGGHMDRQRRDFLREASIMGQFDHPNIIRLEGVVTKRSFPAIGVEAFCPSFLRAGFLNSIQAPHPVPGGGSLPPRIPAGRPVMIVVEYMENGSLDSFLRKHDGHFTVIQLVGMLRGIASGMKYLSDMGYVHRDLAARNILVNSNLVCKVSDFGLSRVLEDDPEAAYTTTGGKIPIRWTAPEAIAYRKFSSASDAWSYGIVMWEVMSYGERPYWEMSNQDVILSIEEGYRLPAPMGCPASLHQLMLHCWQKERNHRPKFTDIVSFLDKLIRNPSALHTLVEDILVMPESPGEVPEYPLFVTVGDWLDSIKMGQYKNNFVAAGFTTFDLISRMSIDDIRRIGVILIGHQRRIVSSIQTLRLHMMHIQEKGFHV
UniProt Q6P2I3: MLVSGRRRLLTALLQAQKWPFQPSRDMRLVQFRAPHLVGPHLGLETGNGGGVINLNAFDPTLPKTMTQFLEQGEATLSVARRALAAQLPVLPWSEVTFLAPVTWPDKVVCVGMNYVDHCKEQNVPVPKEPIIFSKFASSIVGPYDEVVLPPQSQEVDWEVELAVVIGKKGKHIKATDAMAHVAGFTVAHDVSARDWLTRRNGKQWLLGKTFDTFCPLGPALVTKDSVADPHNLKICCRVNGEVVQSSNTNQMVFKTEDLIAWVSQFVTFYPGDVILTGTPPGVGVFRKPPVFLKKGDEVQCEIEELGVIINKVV
UniProt Q96B26, whole entry, looked up: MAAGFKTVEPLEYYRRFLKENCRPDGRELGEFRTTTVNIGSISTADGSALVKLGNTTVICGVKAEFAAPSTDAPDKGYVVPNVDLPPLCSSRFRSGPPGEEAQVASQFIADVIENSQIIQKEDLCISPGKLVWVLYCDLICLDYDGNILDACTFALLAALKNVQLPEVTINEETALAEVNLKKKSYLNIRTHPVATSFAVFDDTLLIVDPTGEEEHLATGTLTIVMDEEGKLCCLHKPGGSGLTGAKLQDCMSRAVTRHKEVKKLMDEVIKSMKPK
UniProt Q7L775: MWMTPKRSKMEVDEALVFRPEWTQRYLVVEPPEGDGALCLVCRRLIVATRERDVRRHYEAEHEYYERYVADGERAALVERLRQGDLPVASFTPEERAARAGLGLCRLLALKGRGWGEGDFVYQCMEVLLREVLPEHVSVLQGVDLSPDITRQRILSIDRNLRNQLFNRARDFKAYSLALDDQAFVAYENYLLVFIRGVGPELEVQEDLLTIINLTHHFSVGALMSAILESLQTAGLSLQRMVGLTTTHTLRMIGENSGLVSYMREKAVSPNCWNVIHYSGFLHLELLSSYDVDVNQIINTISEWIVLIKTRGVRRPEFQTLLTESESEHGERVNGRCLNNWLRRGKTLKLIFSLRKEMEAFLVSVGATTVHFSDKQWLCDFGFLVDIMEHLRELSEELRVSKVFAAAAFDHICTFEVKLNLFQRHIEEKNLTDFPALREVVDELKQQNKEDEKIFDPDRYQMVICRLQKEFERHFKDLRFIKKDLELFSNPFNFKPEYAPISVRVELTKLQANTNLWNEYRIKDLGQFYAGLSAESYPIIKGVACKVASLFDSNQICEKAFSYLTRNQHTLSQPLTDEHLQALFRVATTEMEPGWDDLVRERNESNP
UniProt P11474: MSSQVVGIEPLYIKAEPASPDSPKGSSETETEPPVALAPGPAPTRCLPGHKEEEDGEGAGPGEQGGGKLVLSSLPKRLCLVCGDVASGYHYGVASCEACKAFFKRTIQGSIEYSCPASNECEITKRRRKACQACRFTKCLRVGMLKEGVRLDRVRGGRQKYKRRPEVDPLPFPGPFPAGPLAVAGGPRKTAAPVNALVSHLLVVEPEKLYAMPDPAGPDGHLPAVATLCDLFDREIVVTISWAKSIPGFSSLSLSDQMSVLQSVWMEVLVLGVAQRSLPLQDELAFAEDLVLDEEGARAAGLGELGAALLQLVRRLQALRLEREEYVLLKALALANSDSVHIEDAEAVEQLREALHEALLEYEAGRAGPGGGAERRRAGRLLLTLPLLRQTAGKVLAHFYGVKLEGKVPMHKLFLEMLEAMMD
UniProt Q13868, whole entry, looked up: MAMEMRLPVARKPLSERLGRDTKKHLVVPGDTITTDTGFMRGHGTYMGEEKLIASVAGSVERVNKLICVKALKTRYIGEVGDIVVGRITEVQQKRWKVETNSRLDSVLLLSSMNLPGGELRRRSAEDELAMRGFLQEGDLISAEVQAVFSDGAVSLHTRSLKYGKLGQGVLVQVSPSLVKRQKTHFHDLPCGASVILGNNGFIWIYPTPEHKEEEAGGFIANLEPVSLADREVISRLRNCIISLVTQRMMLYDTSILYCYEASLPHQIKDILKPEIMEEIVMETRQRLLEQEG
UniProt O43414: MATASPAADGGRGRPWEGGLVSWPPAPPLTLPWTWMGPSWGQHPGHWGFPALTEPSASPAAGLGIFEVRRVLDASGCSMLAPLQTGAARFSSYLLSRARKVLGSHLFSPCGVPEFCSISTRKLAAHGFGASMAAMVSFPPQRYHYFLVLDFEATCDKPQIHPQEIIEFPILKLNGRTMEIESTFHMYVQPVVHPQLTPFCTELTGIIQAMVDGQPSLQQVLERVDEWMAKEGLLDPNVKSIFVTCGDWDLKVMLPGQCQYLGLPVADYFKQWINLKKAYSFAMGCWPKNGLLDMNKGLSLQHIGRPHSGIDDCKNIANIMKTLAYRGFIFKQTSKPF

Compound in the assay: c1cn2cc(-c3ccc4cn[nH]c4c3)nc(Nc3ccc(N4CCOCC4)cc3)c2n1 [entospletinib]
As to the kind of experiment: log2 fold change, soluble protein after heating vs DMSO (PISA); higher = thermal stabilisation; K562 cells, 10 uM, 30 min; active = over 0.2 and 3.5 SD of the protein, either way, in both replicates (recomputed). The essentials:
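For each measurement, 10 μM compound was applied for 30 min to K562 cells at 2×10^6 cells/mL. Aliquots were heated for 3 min across 48°C-58°C, pooled, and extracted in PBS with 0.5% NP-40 at 4°C; the supernatant after 21,000xg for 90 min was soluble protein. This was quantified by TMTpro 16plex LC-MS/MS with channel sums equalised, and thermal stability was reported relative to control samples from duplicates, on a log2 fold-change scale.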
With F11R (UniProt Q9Y624), the log2 fold change was inactive: 0.034. Turning to EXOSC1 (UniProt Q9Y3B2), the log2 fold change was inactive: 0.089. Next, ERO1B (UniProt Q86YB8): inactive: -0.246; ERH (UniProt P84090): inactive: 0.063. Take FABP3 (UniProt P05413): the log2 fold change is inactive: 0.259. Regarding ERO1A (UniProt Q96HE7), the log2 fold change was inactive: 0.006. Take FAM136A (UniProt Q96C01): the log2 fold change was inactive: -0.059. With ERVK3-1, A0A0U1RQV1 the figure was inactive: 0.014.

On to ERAP1 isoform 2 (UniProt Q9NZ08), for which the log2 fold change was inactive: 0.004.

For ERBIN isoform 8 (UniProt Q96RT1), the log2 fold change was inactive: 0.019.

For F2 (UniProt P00734), the log2 fold change was inactive: 0.089. With EPHA6 (UniProt Q9UF33) the figure was inactive: 0.745; with ERCC6L (UniProt Q2NKX8), inactive: 0.137; with FAHD2B (UniProt Q6P2I3), inactive: 0.003.

EXOSC8 (UniProt Q96B26): the log2 fold change was inactive: -0.014. Next, FAM120A isoform 6 (UniProt Q9NZB2): inactive: 0.084; ERI3 (UniProt H0Y4B0): inactive: 0.555; EPM2AIP1 (UniProt Q7L775): inactive: -0.012. Next, ESRRA (UniProt P11474): inactive: 0.055.

Turning to EXOSC2 (UniProt Q13868), the log2 fold change is inactive: -0.025. As for EXOSC9 isoform 2 (UniProt Q06265), the log2 fold change is inactive: 0.028. With F13A1 (UniProt P00488) the figure was inactive: -0.01; with ERI3 (UniProt O43414), inactive: 0.021.

These data come from the supplement of paper PMC10849652.
